This data set is described as follows: general procedure: solution-phase peptide synthesis; HATU/DIEA. As to conditions: coupling step, formic acid salt.

Take “tert-butyl ((2R,3R)-3-((S)-1-((3R,4S,5S)-4-((2S,3S)-3-azido-N-methyl-2-((S)-3-methyl-2-(methylamino)butanamido)butanamido)-3-methoxy-5-methylheptanoyl)pyrrolidin-2-yl)-3-methoxy-2-methylpropanoyl)-L-phenylalaninate”: the step yield was found to be 5%.

The values are drawn from patent US12612429 (dated 2026).
